These results are taken from patent US6492139.

Chains of the proteins cited; added tags and fusions are not shown. Lines headed by an entry give the natural chain unless they say otherwise; changes in a name come on top.
UniProt P97698: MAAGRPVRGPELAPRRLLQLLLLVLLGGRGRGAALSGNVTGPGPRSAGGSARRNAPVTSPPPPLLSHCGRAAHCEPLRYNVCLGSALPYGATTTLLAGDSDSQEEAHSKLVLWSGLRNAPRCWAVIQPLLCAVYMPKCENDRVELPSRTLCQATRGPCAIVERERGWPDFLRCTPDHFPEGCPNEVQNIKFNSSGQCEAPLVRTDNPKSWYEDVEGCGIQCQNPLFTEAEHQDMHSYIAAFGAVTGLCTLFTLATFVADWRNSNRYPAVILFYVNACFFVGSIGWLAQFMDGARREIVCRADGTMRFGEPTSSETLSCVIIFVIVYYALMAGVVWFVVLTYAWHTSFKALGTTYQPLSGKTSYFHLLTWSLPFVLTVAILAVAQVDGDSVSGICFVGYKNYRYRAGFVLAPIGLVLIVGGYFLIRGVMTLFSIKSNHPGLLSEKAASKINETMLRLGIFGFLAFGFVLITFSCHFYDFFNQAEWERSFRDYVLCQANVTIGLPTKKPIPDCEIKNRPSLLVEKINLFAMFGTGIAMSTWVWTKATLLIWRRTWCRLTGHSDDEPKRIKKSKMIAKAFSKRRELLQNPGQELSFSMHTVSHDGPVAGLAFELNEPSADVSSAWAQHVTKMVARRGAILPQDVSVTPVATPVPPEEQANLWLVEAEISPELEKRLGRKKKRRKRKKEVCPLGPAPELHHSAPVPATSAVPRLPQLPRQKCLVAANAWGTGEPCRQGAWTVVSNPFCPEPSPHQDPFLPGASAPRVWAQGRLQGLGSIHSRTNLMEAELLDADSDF

Experiment [1] addresses T1, Myc tagged mPatched (murine Patched with C-terminal Myc epitope tag) (mouse) (UniProt Q61115).
T1 sequence (looked up): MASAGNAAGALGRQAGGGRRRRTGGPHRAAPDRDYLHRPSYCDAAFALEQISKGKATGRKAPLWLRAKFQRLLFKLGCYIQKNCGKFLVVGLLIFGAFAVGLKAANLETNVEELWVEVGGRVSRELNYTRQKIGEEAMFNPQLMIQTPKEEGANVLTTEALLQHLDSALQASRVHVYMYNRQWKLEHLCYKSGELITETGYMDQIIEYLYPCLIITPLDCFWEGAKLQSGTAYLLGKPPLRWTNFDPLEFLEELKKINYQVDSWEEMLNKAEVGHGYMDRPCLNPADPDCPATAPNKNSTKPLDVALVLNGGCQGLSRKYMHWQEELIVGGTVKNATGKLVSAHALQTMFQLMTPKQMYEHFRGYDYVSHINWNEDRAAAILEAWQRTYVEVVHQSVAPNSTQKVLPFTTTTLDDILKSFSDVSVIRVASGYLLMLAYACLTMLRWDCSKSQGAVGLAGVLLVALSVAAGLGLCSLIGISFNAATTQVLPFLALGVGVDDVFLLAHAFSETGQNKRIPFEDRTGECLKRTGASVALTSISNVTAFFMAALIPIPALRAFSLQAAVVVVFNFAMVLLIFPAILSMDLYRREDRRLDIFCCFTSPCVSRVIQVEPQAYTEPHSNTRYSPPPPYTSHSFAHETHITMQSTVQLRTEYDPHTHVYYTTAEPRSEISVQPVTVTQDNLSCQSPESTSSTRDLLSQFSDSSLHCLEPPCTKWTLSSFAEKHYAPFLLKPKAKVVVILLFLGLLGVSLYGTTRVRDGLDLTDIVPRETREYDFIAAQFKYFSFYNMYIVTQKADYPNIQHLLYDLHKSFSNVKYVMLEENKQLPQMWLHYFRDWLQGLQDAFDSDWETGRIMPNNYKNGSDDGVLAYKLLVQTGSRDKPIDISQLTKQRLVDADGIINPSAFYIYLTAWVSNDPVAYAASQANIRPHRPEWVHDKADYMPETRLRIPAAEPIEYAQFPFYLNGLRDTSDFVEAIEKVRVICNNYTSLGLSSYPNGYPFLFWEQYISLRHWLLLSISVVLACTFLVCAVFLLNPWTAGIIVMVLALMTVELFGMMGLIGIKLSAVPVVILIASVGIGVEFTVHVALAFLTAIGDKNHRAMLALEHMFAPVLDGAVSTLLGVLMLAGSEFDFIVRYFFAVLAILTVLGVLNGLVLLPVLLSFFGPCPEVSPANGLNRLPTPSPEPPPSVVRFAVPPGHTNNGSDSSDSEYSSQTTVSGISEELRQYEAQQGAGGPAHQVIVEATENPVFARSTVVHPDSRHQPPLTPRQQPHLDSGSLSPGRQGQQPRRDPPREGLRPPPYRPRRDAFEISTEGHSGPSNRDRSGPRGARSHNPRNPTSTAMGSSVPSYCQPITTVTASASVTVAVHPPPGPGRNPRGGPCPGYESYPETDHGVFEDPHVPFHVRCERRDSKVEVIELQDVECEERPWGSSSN
Nature of the experiment: reciprocal co-immunoprecipitation and Western blot, 293 cells co-expressing both. (A western blot detects proteins with antibodies after separation by electrophoresis.)

For experiment [2], the target named is T1, Myc tagged mPatched (murine Patched with C-terminal Myc epitope tag) (mouse). As to the kind of experiment: co-immunoprecipitation and Western blot (legend of FIG. 7).

No constants are given. Whether binding was seen depends on the method and setting. Binding seen in cells or lysates may run through a third protein. Some results given as binding are weak or reduced against the parent protein; the word gives no strength. Tags and fused reporters may be left off the sequences shown.

In the case of “Flag tagged rSmo (rat Smoothened with C-terminal Flag epitope tag) (from UniProt P97698 33-793) (receptor)”, the binding result in experiment [1] and in experiment [2] was “binds” in each case.
